In article PMC7864053:
Results are given in words; binding and its absence hold for the method and conditions named. In cells and extracts the contact can be indirect. Some binding calls cover weakened binding; strength is not graded here.

Chains of the proteins cited; added tags and fusions are not shown.
UniProt O35346: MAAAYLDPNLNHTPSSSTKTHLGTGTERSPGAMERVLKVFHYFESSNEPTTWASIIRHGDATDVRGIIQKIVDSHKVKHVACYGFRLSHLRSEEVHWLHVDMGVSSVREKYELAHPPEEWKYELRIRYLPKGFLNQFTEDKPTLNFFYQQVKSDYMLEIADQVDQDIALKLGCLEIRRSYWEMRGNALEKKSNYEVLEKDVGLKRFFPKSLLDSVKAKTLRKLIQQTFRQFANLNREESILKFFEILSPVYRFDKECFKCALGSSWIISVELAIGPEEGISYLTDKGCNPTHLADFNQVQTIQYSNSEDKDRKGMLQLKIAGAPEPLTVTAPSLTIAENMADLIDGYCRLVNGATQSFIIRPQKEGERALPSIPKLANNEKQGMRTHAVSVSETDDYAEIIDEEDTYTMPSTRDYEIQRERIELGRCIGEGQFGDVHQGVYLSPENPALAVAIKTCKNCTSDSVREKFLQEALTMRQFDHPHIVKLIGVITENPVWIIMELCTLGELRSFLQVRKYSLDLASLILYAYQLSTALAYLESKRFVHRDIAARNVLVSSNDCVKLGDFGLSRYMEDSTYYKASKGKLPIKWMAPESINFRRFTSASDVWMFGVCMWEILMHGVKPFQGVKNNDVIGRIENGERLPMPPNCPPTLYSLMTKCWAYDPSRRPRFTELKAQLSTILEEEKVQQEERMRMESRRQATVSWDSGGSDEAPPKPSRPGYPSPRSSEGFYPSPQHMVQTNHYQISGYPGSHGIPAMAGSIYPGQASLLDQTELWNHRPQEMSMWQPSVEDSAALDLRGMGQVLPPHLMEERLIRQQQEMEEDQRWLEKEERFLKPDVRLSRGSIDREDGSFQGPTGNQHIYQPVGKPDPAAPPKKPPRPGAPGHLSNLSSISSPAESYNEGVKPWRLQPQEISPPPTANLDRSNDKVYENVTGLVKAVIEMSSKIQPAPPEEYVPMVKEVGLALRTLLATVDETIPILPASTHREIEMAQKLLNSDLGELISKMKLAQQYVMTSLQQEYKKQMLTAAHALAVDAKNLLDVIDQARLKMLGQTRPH
UniProt Q66H76: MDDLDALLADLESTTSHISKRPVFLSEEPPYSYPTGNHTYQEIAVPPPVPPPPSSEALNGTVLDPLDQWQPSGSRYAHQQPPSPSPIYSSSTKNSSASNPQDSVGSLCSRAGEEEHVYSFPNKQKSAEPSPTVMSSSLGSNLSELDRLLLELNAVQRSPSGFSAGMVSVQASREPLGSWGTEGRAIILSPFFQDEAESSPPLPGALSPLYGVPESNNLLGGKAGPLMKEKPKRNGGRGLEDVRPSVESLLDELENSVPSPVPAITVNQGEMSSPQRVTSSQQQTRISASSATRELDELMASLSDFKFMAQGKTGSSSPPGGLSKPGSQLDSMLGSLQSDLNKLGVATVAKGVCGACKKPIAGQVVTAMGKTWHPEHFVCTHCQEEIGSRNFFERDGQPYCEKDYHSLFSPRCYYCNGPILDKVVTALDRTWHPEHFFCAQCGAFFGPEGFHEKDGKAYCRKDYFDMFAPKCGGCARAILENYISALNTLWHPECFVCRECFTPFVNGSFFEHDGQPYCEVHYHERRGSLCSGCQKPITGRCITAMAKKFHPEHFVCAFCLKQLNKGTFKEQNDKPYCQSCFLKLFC

Assays:
[1] = target: focal adhesion kinase (rat (endogenous in rat primary β-cells)) (UniProt O35346); assay: co-IP; rat primary β-cells after 4 h in 2.8 mM glucose then 20 min in 16.7 mM glucose, or 4 h in 2.8 mM glucose with AG1024; lysate (30-50 μg protein) with anti-FAK antibody 1 h at 4 °C, protein A/G-agarose overnight at 4 °C; Western blot for paxillin
[2] = target: focal adhesion kinase (rat (endogenous in rat primary β-cells)) (UniProt O35346); assay: co-IP; rat primary β-cells kept 4 h in 2.8 mM glucose (low glucose, no inhibitor); lysate (30-50 μg protein) with anti-FAK antibody 1 h at 4 °C, protein A/G-agarose overnight at 4 °C; Western blot for paxillin

## paxillin (from UniProt Q66H76 1-586)
[1]
  binding: binds
[2]
  binding: binds weakly
